Source: PubChem BioAssay AID1508597 (Cure First, 2020)
Aim: 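Survival screen with siRNA in ovarian cancer cells derived from patients, with or without rucaparib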 (primary screen). Cells: human ovarian carcinoma lines grown from tumours: OCI-P5x (papillary serous) and OCI-C5x (clear cell). Reagents: siRNA pool against human genes, 1.25 pmol siRNA per well. Duration: 72 h or 96 h, depending on the cell culture. Conditions: rucaparib 20 µM (about IC30) or vehicle, present until read-out. Rucaparib or vehicle: Rucaparib. Cell line: OCI-C5x (clear cell). Read-out: 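ATP luminescence measured at 72 or 96 h according to the culture, then normalised and expressed as percent viability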. Scale: viability, normalised: higher = more viable cells remaining. Call rule: 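Active when normalised viability falls below 80 percent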. Calls: active = viability under 80%; inactive = viability 80% or more.
This is a random part of the about 2,100 reagents, in one setting of the screen. 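Calls flag viability under 80% in either arm, not effects specific to rucaparib; the reference for percent is not stated.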 A reagent listed more than once was tested more than once; the source does not tell the runs apart. The record does not give: the 100% reference.

The first 4 entries as a preview:
gene,technical replicate,"viability, normalised (%)",Outcome
MTRF1L,1,62.9,active
MTRF1L,2,54.8,active
MTRF1L,3,67.3,active
RIPK3,1,69.6,active

Main list, repeating the preview:
gene,technical replicate,"viability, normalised (%)",Outcome
MTRF1L,1,62.9,active
MTRF1L,2,54.8,active
MTRF1L,3,67.3,active
RIPK3,1,69.6,active
RIPK3,2,68.9,active
RIPK3,3,63.8,active
MBD6,1,38.1,active
MBD6,2,31.9,active
MBD6,3,40.8,active
STK10,1,50.6,active
STK10,2,55.8,active
STK10,3,42.8,active
FER,1,42.1,active
FER,2,55.3,active
FER,3,40,active
UIMC1,1,59,active
UIMC1,1,62.5,active
UIMC1,2,60.3,active
UIMC1,2,51.9,active
UIMC1,3,50.8,active
UIMC1,3,63.5,active
SIK2,1,35.8,active
SIK2,2,31.5,active
SIK2,3,29.1,active
SUPT4H1,1,51.3,active
SUPT4H1,2,45,active
SUPT4H1,3,62.4,active
SETD7,1,43.1,active
SETD7,2,47.8,active
SETD7,3,35.3,active
PRDM13,1,43.2,active
PRDM13,2,40.6,active
PRDM13,3,38.5,active
PDE6H,1,69.8,active
PDE6H,2,73.2,active
PDE6H,3,64,active
PRKG2,1,60.4,active
PRKG2,2,60.4,active
PRKG2,3,68.9,active
